From article PMC5640428

Biological target: T1, myc-tagged KCC2b (UniProt Q91V14)
T1 sequence: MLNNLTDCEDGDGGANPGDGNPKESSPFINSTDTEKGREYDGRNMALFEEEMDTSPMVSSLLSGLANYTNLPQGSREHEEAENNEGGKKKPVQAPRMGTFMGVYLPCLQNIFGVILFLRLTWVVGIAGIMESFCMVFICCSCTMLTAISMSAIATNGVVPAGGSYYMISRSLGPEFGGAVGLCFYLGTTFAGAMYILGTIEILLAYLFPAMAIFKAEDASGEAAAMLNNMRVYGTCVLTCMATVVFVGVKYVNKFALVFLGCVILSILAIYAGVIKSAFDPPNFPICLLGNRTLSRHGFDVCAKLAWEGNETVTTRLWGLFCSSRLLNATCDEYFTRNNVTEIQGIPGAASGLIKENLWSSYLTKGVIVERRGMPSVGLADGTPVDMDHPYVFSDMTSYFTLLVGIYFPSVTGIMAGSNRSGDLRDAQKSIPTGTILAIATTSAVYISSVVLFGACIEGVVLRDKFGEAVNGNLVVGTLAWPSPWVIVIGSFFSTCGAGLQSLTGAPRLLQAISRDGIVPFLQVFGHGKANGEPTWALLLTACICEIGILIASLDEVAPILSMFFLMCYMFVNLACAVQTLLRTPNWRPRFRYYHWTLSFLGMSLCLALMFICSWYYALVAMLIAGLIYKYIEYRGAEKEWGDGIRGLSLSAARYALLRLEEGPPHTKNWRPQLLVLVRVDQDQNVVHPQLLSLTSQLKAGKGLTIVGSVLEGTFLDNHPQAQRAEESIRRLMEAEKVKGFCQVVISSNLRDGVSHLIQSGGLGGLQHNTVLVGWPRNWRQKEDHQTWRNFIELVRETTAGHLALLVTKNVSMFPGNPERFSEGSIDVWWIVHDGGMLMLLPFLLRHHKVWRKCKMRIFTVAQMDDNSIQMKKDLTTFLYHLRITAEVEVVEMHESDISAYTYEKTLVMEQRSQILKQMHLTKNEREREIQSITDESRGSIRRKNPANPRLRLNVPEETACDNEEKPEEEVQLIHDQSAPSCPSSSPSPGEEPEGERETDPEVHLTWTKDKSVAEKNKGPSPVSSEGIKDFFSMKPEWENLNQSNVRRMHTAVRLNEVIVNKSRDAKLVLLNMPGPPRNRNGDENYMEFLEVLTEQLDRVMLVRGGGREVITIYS
Test: co-IP; COS7 cells co-transfected with myc-tagged KCC2b and GFP-tagged PACSIN constructs; lysed in modified RIPA buffer; precipitated with anti-N-terminal KCC2b antibody (4 hr, 4°C); immunoblot

Row | binding | Substance
1 | no binding | eGFP-PACSIN1 F-BAR domain alone (mouse) (domain or fragment)
2 | binds | eGFP-PACSIN1 VAR region alone (mouse) (domain or fragment)
3 | binds | eGFP-PACSIN1 without the F-BAR region (mouse) (domain or fragment)
4 | binds | eGFP-PACSIN1 without the SH3 domain (mouse) (domain or fragment)

These are yes or no findings as the source states them, for the method shown. In cells and extracts the contact can be indirect. Binding can be weak; no strength is given. Sequences can lack the tags named with a protein.
